Patent US20210261665A1
Results are given in words; binding and its absence hold for the method and conditions named. Some results given as binding are weak or reduced against the parent protein; the word gives no strength.

B1: TY101-01-09 (antibody, V domains shown)
VH: EVQLVESGGGLVQPGGSLRLSCAASGFTFSSYTMSWVRQAPGKGLEWVSYISHGGGDTYYADSVKGRFTISRDNSKNTLYLQMNSLRAEDTAVYYCARHSGYERGYYYVMDYWGQGTLVTVSS
VL: DIQLTQSPDSLSVSLGERATINCKASESVDYYGFSFLNWFQQKPGQPPKLLIYAASNRQSGVPDRFSGSGSGTDFTLTISSLQAEDVAVYFCQQSKEVPWTFGQGTKLEIKR
B2: TY101-04-T3-05 (antibody, V domains shown)
VH: EVQLVESGGGLVQPGGSLRLSCAASGFTFSSYTMSWVRQAPGKGLEWVSYISHGGGDTYYADSVKGRFTISRDNSKNTLYLQMNSLRAEDTAVYYCARHSGYERGYYYVMDYWGQGTLVTVSS
VL: DIQLTQSPDSLSVSLGERATINCKASESVDYYGFSFLNWFQQKPGQPPKLLIYAASNRQSGVPDRFSGSGSGTDFTLTISSLQAEDVAVYFCQQSKEVPWTFGQGTKLEIKR
B3: TY101-4G1 (antibody, V domains shown)
VH: EVQLVESGGGLVQPGGSLRLSCAASGFTFSSYTMSWVRQAPGKGLEWVSYISHGGGDTYYADSVKGRFTISRDNSKNTLYLQMNSLRAEDTAVYYCARHSGYERGYYYVMDYWGQGTLVTVSS
VL: DIQLTQSPDSLSVSLGERATINCKASESVDYYGFSFLNWFQQKPGQPPKLLIYAASNRQSGVPDRFSGSGSGTDFTLTISSLQAEDVAVYFCQQSKEVPWTFGQGTKLEIKR

Target: cynomolgus monkey PD-1 on cells (cynomolgus monkey) (UniProt B0LAJ3)
Assay: flow cytometry, CHOK1-cPD-1 cells, Alexa Fluor 488 anti-human IgG

binding, binds:
B1, B2, B3
